Source: PubChem BioAssay (EPA / NIEHS)
Inconclusive results, whose numbers are uncertain, are shown with a selection of clear calls. Where the call is inconclusive, the potency comes from a doubtful curve fit. The source made the active and inactive calls. How the source made its calls: active means hit-call score of the fitted dose curve at least 0.9, where 1 is the maximum; inconclusive means response in the unintended direction; inactive means score below 0.9.

Experiment: ACEA_ER_AUC_viability: ACEA Biosciences xCELLigence Real-Time Cell Analysis on Estrogen Receptor Agonism for Viability (AID 2283782);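 further: hit means loss of impedance signal meaning reduced cell growth or viability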
In short: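 Continuous-exposure impedance cell analysis uses T-47D cells in charcoal-stripped serum, eight 1:4 dilutions topping at 100 uM final, biological duplicate. Area under the growth curve at 80 h is fitted against DMSO baseline.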

Row | Structure (SMILES) | AC50 | outcome
1 | C=Cc1ccc(OC(C)=O)cc1 | inconclusive: 0.468 µM | –
2 | OC1CCCCC1 | inconclusive: 50 µM | –
3 | COC(=O)c1ccc(C=O)cc1 | – | inactive
4 | C=C[Si](OCCOC)(OCCOC)OCCOC | – | inactive
5 | CCC1(C)C(=O)N(Cl)C(=O)N1Cl (centres undefined) | active: 81.4 µM | –
6 | CCN(CCC#N)c1ccc(N=Nc2ccc([N+](=O)[O-])cc2)cc1 | – | inactive
7 | CC(C)c1ccc2ncccc2c1 | – | inactive
8 | O=S(=O)(OCCOC(F)(F)F)C(F)(F)F | inconclusive: 1.42 µM | –
9 | CCCCCCC#CC(=O)OC | – | inactive
10 | CCOC(=O)C1OC1c1ccccc1 (centres undefined) | – | inactive
11 | C1COCO1 | – | inactive
12 | O=S(=O)(O)c1ccc(N=Nc2c(O)ccc3ccccc23)cc1 | inconclusive: 50 µM | –
13 | C=C(C)C(=O)OCCOCCOCCOCCOC(=O)C(=C)C | inconclusive: 0.104 µM | –
14 | O=C(O)c1ccc([N+](=O)[O-])cc1 | inconclusive: 85 µM | –

Individual results from the entries so far.
C=C[Si](OCCOC)(OCCOC)OCCOC – outcome: inactive
CCC1(C)C(=O)N(Cl)C(=O)N1Cl (centres undefined) – AC50: active: 81.4 µM
